PMC7348923

By UniProt entry, the sequences of proteins in these tests, tags left out.
UniProt Q90473: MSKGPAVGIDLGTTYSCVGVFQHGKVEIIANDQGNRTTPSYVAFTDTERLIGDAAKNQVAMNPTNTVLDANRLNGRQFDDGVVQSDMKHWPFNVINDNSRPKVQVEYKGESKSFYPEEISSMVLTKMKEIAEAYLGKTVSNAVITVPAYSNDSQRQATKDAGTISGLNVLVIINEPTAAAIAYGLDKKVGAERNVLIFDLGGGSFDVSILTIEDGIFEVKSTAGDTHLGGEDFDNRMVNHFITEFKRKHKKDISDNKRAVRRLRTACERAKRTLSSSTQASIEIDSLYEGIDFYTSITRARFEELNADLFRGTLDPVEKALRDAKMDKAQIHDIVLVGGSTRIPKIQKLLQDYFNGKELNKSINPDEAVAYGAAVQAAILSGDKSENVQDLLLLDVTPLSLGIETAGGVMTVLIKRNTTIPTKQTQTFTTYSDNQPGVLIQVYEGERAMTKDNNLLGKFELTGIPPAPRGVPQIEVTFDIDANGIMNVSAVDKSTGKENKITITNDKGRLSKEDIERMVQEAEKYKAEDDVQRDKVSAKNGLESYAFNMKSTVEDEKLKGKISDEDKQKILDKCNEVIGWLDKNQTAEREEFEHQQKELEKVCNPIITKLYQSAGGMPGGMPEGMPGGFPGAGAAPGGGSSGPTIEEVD
UniProt A0ACM8QCU4: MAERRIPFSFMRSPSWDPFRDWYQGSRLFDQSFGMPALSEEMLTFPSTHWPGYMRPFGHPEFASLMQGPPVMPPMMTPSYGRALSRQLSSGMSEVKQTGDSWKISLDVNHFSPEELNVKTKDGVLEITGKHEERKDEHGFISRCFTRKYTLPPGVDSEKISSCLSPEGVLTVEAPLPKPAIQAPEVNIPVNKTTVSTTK

Each substance was assayed against T1, zebrafish Hspb8 (zebrafish (endogenous in 120 hpf larvae)) (UniProt Q6PFS1) (assay: affinity purification with mass spectrometry; same co-IP eluates (anti-Hspb8 or anti-Bag3 column; lysate of heat-shocked 120 hpf zebrafish larvae) separated by SDS-PAGE, gel fragments cut out and identified by LC-MS-MS/MS (Mascot, NCBI Danio rerio database)).
T1 sequence: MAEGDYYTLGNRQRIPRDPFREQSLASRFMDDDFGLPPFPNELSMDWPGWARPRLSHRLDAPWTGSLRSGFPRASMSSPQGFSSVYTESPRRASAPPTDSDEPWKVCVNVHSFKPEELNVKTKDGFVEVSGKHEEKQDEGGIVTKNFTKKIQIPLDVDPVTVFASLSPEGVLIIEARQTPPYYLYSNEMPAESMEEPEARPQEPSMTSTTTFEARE

binding | Substance
binds | 14-3-3 protein (zebrafish (endogenous in 120 hpf larvae))
binds | Hsc70 (from UniProt Q90473 1-649)
binds | zebrafish Bag3 (Bcl2-associated athanogene 3)
binds | zebrafish Hspb1 (from UniProt A0ACM8QCU4 1-199)

Results are given in words; binding and its absence hold for the method and conditions named. In cells and extracts the contact can be indirect. These calls come from enrichment with a bait or labelling near it, and not all partners need be listed.
